Test [1] addresses T1, BD-UBP12 (A. thaliana) (UniProt Q9FPT1).
T1 sequence: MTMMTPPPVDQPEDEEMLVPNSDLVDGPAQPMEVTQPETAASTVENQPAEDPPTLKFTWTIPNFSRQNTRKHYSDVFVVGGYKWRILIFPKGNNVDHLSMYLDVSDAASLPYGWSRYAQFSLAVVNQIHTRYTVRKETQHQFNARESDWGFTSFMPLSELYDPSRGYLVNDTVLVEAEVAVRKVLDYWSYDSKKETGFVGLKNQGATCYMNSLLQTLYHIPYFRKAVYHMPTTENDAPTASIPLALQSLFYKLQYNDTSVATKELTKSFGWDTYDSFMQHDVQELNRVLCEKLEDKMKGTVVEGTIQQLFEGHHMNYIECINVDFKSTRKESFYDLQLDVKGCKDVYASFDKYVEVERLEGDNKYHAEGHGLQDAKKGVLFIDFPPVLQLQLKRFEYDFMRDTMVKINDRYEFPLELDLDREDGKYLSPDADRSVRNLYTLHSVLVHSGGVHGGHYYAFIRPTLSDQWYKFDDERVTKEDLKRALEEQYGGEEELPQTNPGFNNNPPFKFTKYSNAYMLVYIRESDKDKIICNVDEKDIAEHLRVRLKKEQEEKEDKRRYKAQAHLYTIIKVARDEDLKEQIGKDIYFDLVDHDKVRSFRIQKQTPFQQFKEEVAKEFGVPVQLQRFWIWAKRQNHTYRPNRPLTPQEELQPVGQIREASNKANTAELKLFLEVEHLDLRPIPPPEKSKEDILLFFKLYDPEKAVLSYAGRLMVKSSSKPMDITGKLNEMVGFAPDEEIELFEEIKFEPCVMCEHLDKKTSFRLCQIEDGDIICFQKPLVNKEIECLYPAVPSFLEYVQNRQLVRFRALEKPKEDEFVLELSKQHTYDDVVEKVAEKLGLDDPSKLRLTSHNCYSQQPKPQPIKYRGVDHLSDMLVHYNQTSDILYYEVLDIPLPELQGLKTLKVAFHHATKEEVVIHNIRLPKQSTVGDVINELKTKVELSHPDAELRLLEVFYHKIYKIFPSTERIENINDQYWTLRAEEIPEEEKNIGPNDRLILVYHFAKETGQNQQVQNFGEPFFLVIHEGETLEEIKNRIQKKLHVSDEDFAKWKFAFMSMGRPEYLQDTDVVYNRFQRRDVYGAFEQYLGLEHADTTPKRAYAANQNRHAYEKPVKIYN
The test can be described thus: two-hybrid; GAL4-based two-hybrid system 3 (Clontech); baits in pGBKT7-BD, preys in pGADT7-AD; growth on SD/-LTH or SD/-ALTH.

Protein sequences, listed by entry. Tags and fused reporters are not part of them.
UniProt Q6EVK6: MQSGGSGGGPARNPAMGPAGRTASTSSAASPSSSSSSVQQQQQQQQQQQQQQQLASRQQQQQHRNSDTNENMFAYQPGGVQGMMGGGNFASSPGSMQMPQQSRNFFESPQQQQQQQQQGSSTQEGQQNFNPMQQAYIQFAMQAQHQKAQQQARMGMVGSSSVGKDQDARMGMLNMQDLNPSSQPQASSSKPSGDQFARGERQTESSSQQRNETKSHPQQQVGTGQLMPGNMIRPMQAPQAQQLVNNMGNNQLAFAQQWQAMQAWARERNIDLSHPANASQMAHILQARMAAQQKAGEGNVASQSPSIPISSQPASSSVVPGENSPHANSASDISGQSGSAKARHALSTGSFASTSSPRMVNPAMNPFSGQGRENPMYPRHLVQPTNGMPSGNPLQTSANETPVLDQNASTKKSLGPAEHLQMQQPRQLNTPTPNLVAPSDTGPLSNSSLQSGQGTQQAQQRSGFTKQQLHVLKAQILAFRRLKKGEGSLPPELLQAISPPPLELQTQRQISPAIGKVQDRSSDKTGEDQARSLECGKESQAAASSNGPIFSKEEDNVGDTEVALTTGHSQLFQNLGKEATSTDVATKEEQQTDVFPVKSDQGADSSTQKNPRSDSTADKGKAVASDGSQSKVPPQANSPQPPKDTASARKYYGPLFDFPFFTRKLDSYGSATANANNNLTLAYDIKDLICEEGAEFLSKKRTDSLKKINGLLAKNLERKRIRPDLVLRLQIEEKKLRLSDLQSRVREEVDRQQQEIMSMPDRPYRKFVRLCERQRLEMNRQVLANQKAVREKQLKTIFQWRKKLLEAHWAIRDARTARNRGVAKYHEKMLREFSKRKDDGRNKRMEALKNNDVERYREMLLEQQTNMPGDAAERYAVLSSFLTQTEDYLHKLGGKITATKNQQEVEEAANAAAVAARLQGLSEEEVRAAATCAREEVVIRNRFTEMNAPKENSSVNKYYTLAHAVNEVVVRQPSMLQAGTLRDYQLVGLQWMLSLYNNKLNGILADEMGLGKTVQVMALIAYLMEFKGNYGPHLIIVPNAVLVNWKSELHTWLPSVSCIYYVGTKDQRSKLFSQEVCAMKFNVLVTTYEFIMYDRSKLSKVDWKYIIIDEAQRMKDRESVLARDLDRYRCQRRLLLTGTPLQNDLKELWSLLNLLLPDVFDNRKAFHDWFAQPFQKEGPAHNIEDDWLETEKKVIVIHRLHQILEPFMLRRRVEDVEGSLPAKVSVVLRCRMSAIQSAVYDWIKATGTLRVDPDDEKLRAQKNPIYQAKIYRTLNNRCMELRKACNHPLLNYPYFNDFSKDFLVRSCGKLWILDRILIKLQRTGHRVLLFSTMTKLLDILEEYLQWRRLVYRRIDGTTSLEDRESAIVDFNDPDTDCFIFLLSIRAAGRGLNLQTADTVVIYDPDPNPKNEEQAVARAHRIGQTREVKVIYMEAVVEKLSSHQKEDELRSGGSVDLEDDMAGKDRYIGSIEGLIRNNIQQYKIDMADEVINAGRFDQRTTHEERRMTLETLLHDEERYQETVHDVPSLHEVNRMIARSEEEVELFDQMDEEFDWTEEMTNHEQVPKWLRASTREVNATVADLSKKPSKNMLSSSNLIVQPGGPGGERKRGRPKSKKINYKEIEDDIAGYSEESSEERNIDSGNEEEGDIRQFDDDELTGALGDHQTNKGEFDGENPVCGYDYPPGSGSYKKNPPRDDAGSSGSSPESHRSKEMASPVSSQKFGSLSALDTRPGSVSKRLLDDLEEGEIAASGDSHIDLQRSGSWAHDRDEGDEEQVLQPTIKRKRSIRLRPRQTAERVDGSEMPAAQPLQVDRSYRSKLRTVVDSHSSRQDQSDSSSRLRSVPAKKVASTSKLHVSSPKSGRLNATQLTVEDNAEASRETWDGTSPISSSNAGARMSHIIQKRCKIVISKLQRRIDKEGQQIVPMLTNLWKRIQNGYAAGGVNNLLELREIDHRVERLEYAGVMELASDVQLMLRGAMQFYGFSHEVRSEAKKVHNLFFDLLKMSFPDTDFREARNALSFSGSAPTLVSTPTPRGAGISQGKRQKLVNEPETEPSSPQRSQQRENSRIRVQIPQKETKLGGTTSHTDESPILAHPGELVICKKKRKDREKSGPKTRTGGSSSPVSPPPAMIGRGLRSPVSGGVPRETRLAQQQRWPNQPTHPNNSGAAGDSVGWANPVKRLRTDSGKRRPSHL
UniProt Q42525: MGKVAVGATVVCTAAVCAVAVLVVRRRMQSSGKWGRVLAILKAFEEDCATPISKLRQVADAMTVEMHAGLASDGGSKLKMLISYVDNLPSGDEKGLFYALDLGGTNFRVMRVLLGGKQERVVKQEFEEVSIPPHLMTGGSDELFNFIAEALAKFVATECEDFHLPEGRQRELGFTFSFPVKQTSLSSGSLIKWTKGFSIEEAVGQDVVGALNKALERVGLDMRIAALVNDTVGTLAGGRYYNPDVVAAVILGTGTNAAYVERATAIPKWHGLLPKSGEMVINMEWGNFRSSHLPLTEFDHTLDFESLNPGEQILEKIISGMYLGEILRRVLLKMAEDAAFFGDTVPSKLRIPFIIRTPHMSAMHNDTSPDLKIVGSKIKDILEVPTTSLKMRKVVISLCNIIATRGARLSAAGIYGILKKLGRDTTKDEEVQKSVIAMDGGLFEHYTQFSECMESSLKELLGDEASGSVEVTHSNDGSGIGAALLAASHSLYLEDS

In test [2] the target is full-length UPL3 bait (A. thaliana) (UniProt Q6WWW4). The description is as above.
The target in test [3] is UPL3-GFP (A. thaliana) (UniProt Q6WWW4). The test can be described thus: co-IP; anti-GFP immunoprecipitation from fifth to eighth rosette leaves of 6-wk-old oeUPL3-GFP or oeUBP12-GFP plants; blots with anti-HXK1, anti-BRM and anti-PPC2.
Test [4] concerns the target T2, UBP12-GFP (A. thaliana) (UniProt Q9FPT1).
T2 sequence: T1 sequence
Described as above.

The target of test [5] is full-length UPL3 bait (A. thaliana) (UniProt Q6WWW4). As to the kind of experiment: two-hybrid; GAL4-based two-hybrid system 3 (Clontech); baits in pGBKT7-BD, preys in pGADT7-AD; growth on SD/-LTH or SD/-ALTH. The source holds these as a separate data set.
For test [6], the target named is T3, N-terminal fragment (470 aa) of UPL3 containing armadillo repeats (A. thaliana) (UniProt Q6WWW4).
T3 sequence: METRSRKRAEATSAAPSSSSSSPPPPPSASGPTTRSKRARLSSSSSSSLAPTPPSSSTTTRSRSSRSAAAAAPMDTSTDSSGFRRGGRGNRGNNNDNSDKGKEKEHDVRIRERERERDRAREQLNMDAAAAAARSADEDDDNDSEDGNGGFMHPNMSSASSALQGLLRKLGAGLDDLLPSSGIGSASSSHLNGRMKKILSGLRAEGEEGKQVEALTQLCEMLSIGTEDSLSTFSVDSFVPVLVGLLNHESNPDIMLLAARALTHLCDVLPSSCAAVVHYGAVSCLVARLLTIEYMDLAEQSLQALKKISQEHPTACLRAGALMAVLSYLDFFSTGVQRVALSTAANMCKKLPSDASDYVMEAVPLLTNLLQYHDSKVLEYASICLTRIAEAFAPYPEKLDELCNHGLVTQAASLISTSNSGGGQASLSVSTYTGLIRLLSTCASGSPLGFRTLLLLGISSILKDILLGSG
The description is as above.

Test [7] addresses T1, BD-UBP12 (A. thaliana). Described as above. The source holds these as a separate data set.

Like-named read-outs stand apart in the source and are kept apart here. These are yes or no findings as the source states them, for the method shown. For some of these results: In cells and extracts the contact can be indirect. Some binding calls cover weakened binding; strength is not graded here. For some of these results: Where a sequence is shown, tags or fusion partners need not be part of it.

For the molecule “BRM (two-hybrid prey) (from UniProt Q6EVK6 1-2193)”, the binding result in test [1] and in test [2] was “binds weakly” in each case.

For the molecule “hexokinase 1 (HXK1) (from UniProt Q42525 1-496) (enzyme)”, the binding entry is “binds” in test [3] and “no binding” in test [4].

In the case of “HXK1 (two-hybrid prey) (from UniProt Q42525 1-496) (enzyme)”, the binding entry in test [1] is “no binding”; in test [2], “binds weakly”.

B1: N-terminal fragment (470 aa) of UPL3 containing armadillo repeats (domain or fragment, UniProt Q6WWW4 1-470)
chain: T3 sequence
With B1, the values for the binding result in test [5] and in test [6] were “no binding” and “binds”, respectively.

B2: UPL5 (two-hybrid fusion) (enzyme, UniProt Q9SU29 1-873)
chain: MTLSRSSADDSTNNANRSYSAVAGTDNKRKRDEDSSDYVGVAESLEMLKKQEIDADHMAASAQQTLISWRSGENSRSLSSSGECSSSNRPESTRLQIFVRMMSGGKTIVIHAEKYDTVEKLHQRIEWKTKIPALEQRVIYKGKQLQRENSLTYYSIEQDASLQLVARMQSTEHPVAWQTIDDIMYTISRMYKGENLQSNINEKIVTFFAMIPVESDESIAKYLNIFSNSSVPAALVMLYASSLERNKSCAKSSVKLFLSNCVALPKNQKNYCLPIVLEFCKLLRKVCPDQKLYVTCRNTLGSMLETFDNPHGVYNDQYETFGVEIFPFFTELTGLLLNELAQNSGPSFCDFQKVSSFWQQLRKVIELKVAFPIPIVLPMQSTALEAEIRHLHRLFGSLLTTMDLCMCRVESSLADKEVGNSETMSSSWSQYLSILKIINSMSNIYQGAKGQLAVMLNKNKVSFSALVVKFAKRGDDHQWIFEYKEATNFEARRHLAMLLFPDVKEDFEEMHEMLIDRSNLLSESFEYIVGASPEALHGGLFMEFKNEEATGPGVLREWFYLVCQEIFNPKNTLFLRSADDFRRFSPNPASKVDPLHPDFFEFTGRVIALALMHKVQVGVLFDRVFFLQLAGLKISLEDIKDTDRIMYNSCKQILEMDPEFFDSNAGLGLTFVLETEELGKRDTIELCPDGKLKAVNSKNRKQYVDLLIERRFATPILEQVKQFSRGFTDMLSHSVPPRSFFKRLYLEDLDGMLRGGENPISIDDWKAHTEYNGFKETDRQIDWFWKILKKMTEEEQRSILFFWTSNKFVPVEGFRGLSSKLYIYRLYEANDRLPLSHTCFYRLCIPRYPTITLMEQRLRLIAQDHVSSSFGKW
On to B2, for which, in test [6], the binding entry was “no binding”.

B3: PPC2 (two-hybrid prey) (enzyme, UniProt Q5GM68 1-963)
chain: MAARNLEKMASIDAQLRLLAPGKVSEDDKLIEYDALLLDRFLDILQDLHGEDVREFVQECYEVAADYDGNRNTEKLEELGNMLTSLDPGDSIVVTKSFSNMLSLANLAEEVQIAYRRRIKKLKKGDFADEASATTESDIEETLKRLLQLNKTPEEVFDALKNQTVDLVLTAHPTQSVRRSLLQKFGRIRDCLTQLYAKDITPDDKQELDEALQREIQAAFRTDEIRRTPPTPQDEMRAGMSYFHETIWKGVPKFLRRVDTALKNIGINERVPYNAPLIQFSSWMGGDRDGNPRVTPEVTRDVCLLARMMAANLYFSQIEDLMFEMSMWRCNEELRVRAERQRCAKRDAKHYIEFWKQIPANEPYRAILGDVRDKLYNTRERARQLLSSGVSDVPEDAVFTSVDQFLEPLELCYRSLCDCGDRPIADGSLLDFLRQVSTFGLALVKLDIRQESERHSDVLDAITTHLGIGSYKEWSEDKRQEWLLSELSGKRPLFGPDLPKTEEVADVLDTFKVISELPSDSFGAYIISMATAPSDVLAVELLQRECGITDPLRVVPLFEKLADLESAPAAVARLFSIEWYRNRINGKQEVMIGYSDSGKDAGRLSAAWQLYKTQEELVKVAKEYGVKLTMFHGRGGTVGRGGGPTHLAILSQPPDTIHGQLRVTVQGEVIEQSFGEEHLCFRTLQRFTAATLEHGMHPPVSPKPEWRVLMDEMAIIATEEYRSVVFKEPRFVEYFRLATPELEYGRMNIGSRPSKRKPSGGIESLRAIPWIFAWTQTRFHLPVWLGFGGAFKRVIQKDSKNLNMLKEMYNQWPFFRVTIDLVEMVFAKGDPGIAALYDRLLVSEELQPFGEQLRVNYQETRRLLLQVAGHKDILEGDPYLRQRLQLRDPYITTLNVCQAYTLKQIRDPSFHVKVRPHLSKDYMESSPAAELVKLNPKSEYAPGLEDTVILTMKGIAAGMQNTG
With B3, the binding entry in test [7] and in test [5] was “binds weakly” each time.

B4: phosphoenolpyruvate carboxylase 2 (PPC2) (enzyme, UniProt Q5GM68 1-963)
chain: B3 chain
Turning to B4, the binding entry in test [3] and in test [4] was “binds” in each case.
